Experiment [1] deals with T1, turnip crinkle virus coat protein with an HA epitope (turnip crinkle virus) (UniProt P06663).
T1 sequence: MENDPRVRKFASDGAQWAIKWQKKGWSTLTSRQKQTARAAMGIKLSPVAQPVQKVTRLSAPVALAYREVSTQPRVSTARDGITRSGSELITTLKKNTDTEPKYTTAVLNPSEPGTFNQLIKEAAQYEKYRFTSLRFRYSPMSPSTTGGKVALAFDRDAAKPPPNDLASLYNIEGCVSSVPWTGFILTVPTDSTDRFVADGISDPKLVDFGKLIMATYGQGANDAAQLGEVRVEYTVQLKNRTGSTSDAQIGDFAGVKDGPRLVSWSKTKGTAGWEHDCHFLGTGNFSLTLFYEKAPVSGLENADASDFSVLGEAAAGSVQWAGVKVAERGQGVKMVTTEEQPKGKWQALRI
Briefly: co-IP; HA- and 3xMyc-tagged proteins transiently co-expressed in N. benthamiana leaves, 3 dpi; extract in 25 mM Tris HCl pH 7.4, 150 mM NaCl, 1 mM EDTA, 1% NP-40, 5% glycerol; Pierce anti-HA magnetic beads, 90 min at room temperature; blots with anti-HA and anti-c-Myc.

By UniProt entry, the sequences of proteins in these tests, tags left out.
UniProt Q40467: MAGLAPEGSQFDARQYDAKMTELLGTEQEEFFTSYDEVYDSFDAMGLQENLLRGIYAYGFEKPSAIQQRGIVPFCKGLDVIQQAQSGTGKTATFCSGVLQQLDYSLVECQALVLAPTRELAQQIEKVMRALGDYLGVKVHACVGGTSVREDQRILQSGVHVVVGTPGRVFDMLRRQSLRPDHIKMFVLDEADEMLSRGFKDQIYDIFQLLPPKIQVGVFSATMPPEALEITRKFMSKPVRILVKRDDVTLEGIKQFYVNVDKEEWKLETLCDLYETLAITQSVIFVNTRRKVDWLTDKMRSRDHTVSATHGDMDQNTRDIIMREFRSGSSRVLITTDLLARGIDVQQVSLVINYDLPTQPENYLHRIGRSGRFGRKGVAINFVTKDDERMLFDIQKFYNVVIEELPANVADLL

For experiment [2], the target named is T2, CiLV-C p29 with a C-terminal HA epitope, transiently expressed (pMOG-p29:HA) (citrus leprosis virus C) (UniProt Q1KZ58).
T2 sequence: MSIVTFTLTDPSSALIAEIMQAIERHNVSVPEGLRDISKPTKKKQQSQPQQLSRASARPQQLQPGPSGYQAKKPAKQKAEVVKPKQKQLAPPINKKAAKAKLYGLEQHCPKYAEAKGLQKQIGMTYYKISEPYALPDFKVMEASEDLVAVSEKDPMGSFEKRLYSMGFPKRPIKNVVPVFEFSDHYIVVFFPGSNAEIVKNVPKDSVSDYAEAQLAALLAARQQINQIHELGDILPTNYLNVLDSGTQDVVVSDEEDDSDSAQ
The experiment is described as above.

Results are given in words; binding and its absence hold for the method and conditions named. Binding seen in cells or lysates may run through a third protein. Some binding calls cover weakened binding; strength is not graded here. Sequences can lack the tags named with a protein.

In the case of “eIF4A with a 3xMyc tag at its N- or C-terminus (co-IP with TCV CP) (from UniProt Q40467 1-413)”, the binding result in experiment [1] was “binds”.
As for “eIF4A with a C-terminal 3xMyc tag (from UniProt Q40467 1-413)”, the binding entry in experiment [2] is reported as “binds”.

(Values after PMC12334043.)
